# Assay results published in US20210139943A1, “MEDIUM AND PROCESS FOR THE CULTURE AND SELECTIVE ISOLATION OF THE BACTERIUM ENTEROCOCCUS HIRAE” (FONDATION MEDITERRANEE INFECTION, priority 2017, published 2021).
# At least one compound was matched to its structure with a doubt left.
# What was measured:
# Enterococcus hirae [1] = settings: Table 1, literature data; cited from earlier work
# Enterococcus faecalis = settings: Table 1, literature data; cited from earlier work
# Enterococcus hirae [2] = assay: Growth on culture medium with clindamycin; assay type: cell-based
# E. faecium = assay: Growth on culture medium with clindamycin; assay type: cell-based, Enterococcus faecium
# E. faecalis = assay: Growth on culture medium with clindamycin; assay type: cell-based, Enterococcus faecalis
# E. durans = assay: Growth on culture medium with clindamycin; assay type: cell-based, Enterococcus durans
structure (smiles),measurement,setting,value
"OC[C@H]1O[C@H](OCC2O[C@@H](O)[C@H](O)[C@@H](O)[C@@H]2O)[C@H](O)[C@@H](O)[C@H]1O (some centres unmarked) [Melibiose, melibiose]",Sugar consumption by Enterococcus hirae,Enterococcus hirae [1],+
same,Sugar consumption by Enterococcus faecalis,Enterococcus faecalis,−
CCC[C@@H]1C[C@@H](C(=O)N[C@@H]([C@H]2O[C@H](SC)[C@H](O)[C@@H](O)[C@H]2O)[C@H](C)Cl)N(C)C1 [clindamycin],Growth of Enterococcus hirae,Enterococcus hirae [2]; 2 mg/L clindamycin,Growth
same,Growth of Enterococcus hirae,Enterococcus hirae [2]; 4 mg/L clindamycin,Growth
same,Growth of Enterococcus hirae,Enterococcus hirae [2]; 8 mg/L clindamycin,have growth
same,Growth of E. faecium,E. faecium; 2 mg/L clindamycin,Growth
same,Growth of E. faecium,E. faecium; 4 mg/L clindamycin,Growth
same,Growth of E. faecium,E. faecium; 8 mg/L clindamycin,have growth
same,Growth of E. faecalis,E. faecalis; 2 mg/L clindamycin,Growth
same,Growth of E. faecalis,E. faecalis; 4 mg/L clindamycin,Growth
same,Growth of E. faecalis,E. faecalis; 8 mg/L clindamycin,have growth
same,Growth of E. durans,E. durans; 2 mg/L clindamycin,Growth
same,Growth of E. durans,E. durans; 4 mg/L clindamycin,Growth
same,Growth of E. durans,E. durans; 8 mg/L clindamycin,lack of growth
